Further values from the same series stand in other lists.
Experiments:
Assay type in all cases: cell-based
Conditions in all cases: U-87MG ATCC
[1] = Inhibition of RTK/PI3K/AKT/mTOR signaling in human U87 cells assessed as down regulation of MED29 gene expression at cytotoxic IC50 measured after 48 hrs relative to control
[2] = Inhibition of RTK/PI3K/AKT/mTOR signaling in human U87 cells assessed as down regulation of SHOC2 gene expression at cytotoxic IC50 measured after 48 hrs relative to control
[3] = Inhibition of RTK/PI3K/AKT/mTOR signaling in human U87 cells assessed as up regulation of ANGPTL4 gene expression at cytotoxic IC50 measured after 48 hrs relative to control
[4] = Inhibition of RTK/PI3K/AKT/mTOR signaling in human U87 cells assessed as down regulation of FSCN1 gene expression at cytotoxic IC50 measured after 48 hrs relative to control
[5] = Inhibition of RTK/PI3K/AKT/mTOR signaling in human U87 cells assessed as down regulation of PFKFB2 gene expression at cytotoxic IC50 measured after 48 hrs relative to control
[6] = Inhibition of RTK/PI3K/AKT/mTOR signaling in human U87 cells assessed as up regulation of WDR6 gene expression at cytotoxic IC50 measured after 48 hrs relative to control
[7] = Inhibition of RTK/PI3K/AKT/mTOR signaling in human U87 cells assessed as up regulation of RPL5 gene expression at cytotoxic IC50 measured after 48 hrs relative to control
[8] = Inhibition of RTK/PI3K/AKT/mTOR signaling in human U87 cells assessed as down regulation of RSRC2 gene expression at cytotoxic IC50 measured after 48 hrs relative to control
[9] = Inhibition of RTK/PI3K/AKT/mTOR signaling in human U87 cells assessed as down regulation of CRYAB gene expression at cytotoxic IC50 measured after 48 hrs relative to control
[10] = Inhibition of RTK/PI3K/AKT/mTOR signaling in human U87 cells assessed as down regulation of FRS2 gene expression at cytotoxic IC50 measured after 48 hrs relative to control
[11] = Inhibition of RTK/PI3K/AKT/mTOR signaling in human U87 cells assessed as down regulation of CCDC14 gene expression at cytotoxic IC50 measured after 48 hrs relative to control
[12] = Inhibition of RTK/PI3K/AKT/mTOR signaling in human U87 cells assessed as up regulation of RSL1D1 gene expression at cytotoxic IC50 measured after 48 hrs relative to control
[13] = Inhibition of RTK/PI3K/AKT/mTOR signaling in human U87 cells assessed as down regulation of ERAL1 gene expression at cytotoxic IC50 measured after 48 hrs relative to control
[14] = Inhibition of RTK/PI3K/AKT/mTOR signaling in human U87 cells assessed as down regulation of MAFG gene expression at cytotoxic IC50 measured after 48 hrs relative to control
[15] = Inhibition of RTK/PI3K/AKT/mTOR signaling in human U87 cells assessed as down regulation of TMEM38B gene expression at cytotoxic IC50 measured after 48 hrs relative to control
[16] = Inhibition of RTK/PI3K/AKT/mTOR signaling in human U87 cells assessed as down regulation of EIF4A2 gene expression at cytotoxic IC50 measured after 48 hrs relative to control
[17] = Inhibition of RTK/PI3K/AKT/mTOR signaling in human U87 cells assessed as up regulation of MRPL42 gene expression at cytotoxic IC50 measured after 48 hrs relative to control
[18] = Inhibition of RTK/PI3K/AKT/mTOR signaling in human U87 cells assessed as down regulation of PPP2R5D gene expression at cytotoxic IC50 measured after 48 hrs relative to control
[19] = Inhibition of RTK/PI3K/AKT/mTOR signaling in human U87 cells assessed as up regulation of chromosome 19 open reading frame 54 gene expression at cytotoxic IC50 measured after 48 hrs relative to control
[20] = Inhibition of RTK/PI3K/AKT/mTOR signaling in human U87 cells assessed as down regulation of CHCHD7 gene expression at cytotoxic IC50 measured after 48 hrs relative to control
[21] = Inhibition of RTK/PI3K/AKT/mTOR signaling in human U87 cells assessed as down regulation of PHF20L1 gene expression at cytotoxic IC50 measured after 48 hrs relative to control
[22] = Inhibition of RTK/PI3K/AKT/mTOR signaling in human U87 cells assessed as down regulation of TNRC6C gene expression at cytotoxic IC50 measured after 48 hrs relative to control
[23] = Inhibition of RTK/PI3K/AKT/mTOR signaling in human U87 cells assessed as down regulation of RALBP1 gene expression at cytotoxic IC50 measured after 48 hrs relative to control
[24] = Inhibition of RTK/PI3K/AKT/mTOR signaling in human U87 cells assessed as up regulation of RPN1 gene expression at cytotoxic IC50 measured after 48 hrs relative to control
[25] = Inhibition of RTK/PI3K/AKT/mTOR signaling in human U87 cells assessed as down regulation of RAB5A gene expression at cytotoxic IC50 measured after 48 hrs relative to control
[26] = Inhibition of RTK/PI3K/AKT/mTOR signaling in human U87 cells assessed as down regulation of RINT1 gene expression at cytotoxic IC50 measured after 48 hrs relative to control
[27] = Inhibition of RTK/PI3K/AKT/mTOR signaling in human U87 cells assessed as down regulation of POLR2L gene expression at cytotoxic IC50 measured after 48 hrs relative to control
[28] = Inhibition of RTK/PI3K/AKT/mTOR signaling in human U87 cells assessed as up regulation of heat shock protein family A (Hsp70) member 5 gene expression at cytotoxic IC50 measured after 48 hrs relative to control
[29] = Inhibition of RTK/PI3K/AKT/mTOR signaling in human U87 cells assessed as down regulation of CDK11B gene expression at cytotoxic IC50 measured after 48 hrs relative to control
[30] = Inhibition of RTK/PI3K/AKT/mTOR signaling in human U87 cells assessed as up regulation of MLLT6 gene expression at cytotoxic IC50 measured after 48 hrs relative to control
[31] = Inhibition of RTK/PI3K/AKT/mTOR signaling in human U87 cells assessed as up regulation of heparan sulfate 6-O-sulfotransferase 2 gene expression at cytotoxic IC50 measured after 48 hrs relative to control
[32] = Inhibition of RTK/PI3K/AKT/mTOR signaling in human U87 cells assessed as down regulation of PBK gene expression at cytotoxic IC50 measured after 48 hrs relative to control

CC(=O)C(=NNc1ccccc1C#N)C(C)=O
log2FC [1]: -0.527 | log2FC [2]: -0.611 | log2FC [3]: 3.25 | log2FC [4]: -0.436 | log2FC [5]: -0.925 | log2FC [6]: 0.498 | log2FC [7]: 0.44 | log2FC [8]: -0.862 | log2FC [9]: -7.2 | log2FC [10]: -0.829 | log2FC [11]: -0.716 | log2FC [12]: 0.4 | log2FC [13]: -0.603 | log2FC [14]: -0.65 | log2FC [15]: -1.16 | log2FC [16]: -0.693 | log2FC [17]: 0.537 | log2FC [18]: -0.627 | log2FC [19]: 1.15 | log2FC [20]: -1.09 | log2FC [21]: -0.561 | log2FC [22]: -0.667 | log2FC [23]: -0.415 | log2FC [24]: 0.492 | log2FC [25]: -0.718 | log2FC [26]: -1.14 | log2FC [27]: -1.24 | log2FC [28]: 0.783 | log2FC [29]: -0.922 | log2FC [30]: 0.478 | log2FC [31]: 0.972 | log2FC [32]: -0.849
